Source: PubChem BioAssay AID1259308 (NCATS, 2017)
Screen: 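Knock-downs that increase output of a recombinant reporter protein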 (primary screen). System: human HEK293 embryonic kidney cells stably expressing firefly luciferase (HEK-CMV-Luc2-Hygro). Knock-down reagent: single siRNA against human genes, 0.8 pmol siRNA per well. Timing: 72 h. Measurement: 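Reporter luminescence and viable-cell signal on separate replicate plates, given as percent of non-targeting control and median/MAD z-scores, plus per-cell luciferase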. Direction: total luciferase, z-score and total luciferase, % of control: higher = more reporter protein produced; luciferase per cell, z-score: higher = more reporter output per viable cell; viable cells, % of control: higher = more viable cells. Call rule: 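An siRNA counts as active if its total luciferase robust z-score exceeds 3; genes with two or more such siRNAs out of three were retested with fresh siRNAs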. Meaning of the calls: active = raised luciferase; inactive = no rise.
Shown is an unselected part of about 59,000 deposited reagents. About 1,510 of them (2.6%) were called active. 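Calls use total luciferase alone and ignore viability, so some active siRNAs may act by altering cell number.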 Reagents against one gene are numbered here.

no.	gene	reagent	total luciferase, z-score	total luciferase, % of control	luciferase per cell, z-score	viable cells, % of control	outcome
1	LINC00944 (long independently transcribed non-coding RNA 944)	1	5.01	181	2.66	101	active
2	LINC00944 (long independently transcribed non-coding RNA 944)	2	-1.85	45.2	-2.04	86.4	inactive
3	LINC00944 (long independently transcribed non-coding RNA 944)	3	-1.22	57.7	-1.28	90.1	inactive
4	GPR180 (G protein-coupled receptor 180)	1	0.19	85.7	-0.0216	96.3	inactive
5	GPR180 (G protein-coupled receptor 180)	2	-0.249	76.9	-0.0941	88.1	inactive
6	GPR180 (G protein-coupled receptor 180)	3	-0.423	73.5	-1.19	112	inactive
7	UBL7 (ubiquitin like 7)	1	-1.38	54.5	-0.258	65.2	inactive
8	UBL7 (ubiquitin like 7)	2	-0.4	73.9	-0.214	87.4	inactive
9	UBL7 (ubiquitin like 7)	3	1.83	118	1.74	83.4	inactive
10	LINC02914 (long independently transcribed non-coding RNA 2914)	1	1.12	104	0.837	93.4	inactive
11	LINC02914 (long independently transcribed non-coding RNA 2914)	2	1.95	121	2.63	67.4	inactive
12	LINC02914 (long independently transcribed non-coding RNA 2914)	3	0.218	86.2	0.0802	94.3	inactive
13	FOXL3-OT1 (FOXL3 overlapping transcript 1)	1	-0.765	66.7	-0.458	84.1	inactive
14	FOXL3-OT1 (FOXL3 overlapping transcript 1)	2	0.00118	81.9	-0.103	94	inactive
15	FOXL3-OT1 (FOXL3 overlapping transcript 1)	3	-0.468	72.6	-0.395	90	inactive
16	HS1BP3 (HCLS1 binding protein 3)	1	0.832	98.4	1.75	69.4	inactive
17	HS1BP3 (HCLS1 binding protein 3)	2	-1.22	57.6	-0.27	69.1	inactive
18	HS1BP3 (HCLS1 binding protein 3)	3	0.158	85	-0.0353	95.9	inactive
19	GPA33 (glycoprotein A33)	1	0.207	86	-0.143	99.8	inactive
20	GPA33 (glycoprotein A33)	2	1.9	120	1.93	80.5	inactive
21	GPA33 (glycoprotein A33)	3	-1.56	50.9	-1.38	81.8	inactive
22	PAPOLB (poly(A) polymerase beta)	1	0.302	87.9	0.478	86.6	inactive
23	PAPOLB (poly(A) polymerase beta)	2	-1.38	54.4	-1.2	83.4	inactive
24	PAPOLB (poly(A) polymerase beta)	3	-0.662	68.7	-0.424	85.9	inactive
25	MATN1 (matrilin 1)	1	-0.984	62.3	0.195	66.2	inactive
26	MATN1 (matrilin 1)	2	1.76	117	0.904	103	inactive
27	MATN1 (matrilin 1)	3	-0.0855	80.2	0.242	84.1	inactive
28	PSMC3 (proteasome 26S subunit, ATPase 3)	1	-0.697	68	1.77	47.7	inactive
29	PSMC3 (proteasome 26S subunit, ATPase 3)	2	-1.8	46.2	2.47	26.9	inactive
30	PSMC3 (proteasome 26S subunit, ATPase 3)	3	-0.46	72.7	2	48	inactive
31	GALNS (galactosamine (N-acetyl)-6-sulfatase)	1	-0.225	77.4	-0.133	89.6	inactive
32	GALNS (galactosamine (N-acetyl)-6-sulfatase)	2	0.119	84.2	-0.309	102	inactive
33	GALNS (galactosamine (N-acetyl)-6-sulfatase)	3	0.297	87.8	0.271	91.3	inactive
34	AVPR1A (arginine vasopressin receptor 1A)	1	1.09	104	0.654	97.5	inactive
35	AVPR1A (arginine vasopressin receptor 1A)	2	0.97	101	0.171	108	inactive
36	AVPR1A (arginine vasopressin receptor 1A)	3	-3.77	6.93	-7.94	62.7	inactive
37	MTHFD2L	1	-0.405	73.8	-0.842	103	inactive
38	MTHFD2L	2	-1.03	61.4	-0.347	75.1	inactive
39	MTHFD2L	3	0.271	87.3	-0.152	102	inactive
40	FBXW9 (F-box and WD repeat domain containing 9)	1	-1.08	60.5	0.474	59.7	inactive
41	FBXW9 (F-box and WD repeat domain containing 9)	2	-0.215	77.6	-0.464	98	inactive
42	FBXW9 (F-box and WD repeat domain containing 9)	3	-1.25	57.1	-0.752	77.7	inactive
43	SLC4A9	1	-0.427	73.4	-1.23	114	inactive
44	SLC4A9	2	-0.781	66.3	-0.588	86.6	inactive
45	SLC4A9	3	4.17	165	2.61	92.7	active
46	TMEM25 (transmembrane protein 25)	1	-1.19	58.3	-0.876	82.1	inactive
47	TMEM25 (transmembrane protein 25)	2	-0.65	69	0.247	72.2	inactive
48	TMEM25 (transmembrane protein 25)	3	0.599	93.8	0.169	100	inactive
49	TRAF3 (TNF receptor associated factor 3)	1	0.727	96.4	-0.142	112	inactive
50	TRAF3 (TNF receptor associated factor 3)	2	4.07	163	2.21	102	active
51	TRAF3 (TNF receptor associated factor 3)	3	1.73	116	1.91	78.7	inactive
52	LOC642620 (retired record)	1	-0.784	66.3	-0.399	82.3	inactive
53	LOC642620 (retired record)	2	0.762	97	1.6	71.2	inactive
54	LOC642620 (retired record)	3	1.24	107	1.32	84.1	inactive
55	LOC642620 (retired record)	4	-1.85	45.2	-1.84	81.9	inactive
56	LOC642620 (retired record)	5	2.03	122	1.23	98.7	inactive
57	LOC642620 (retired record)	6	1.25	107	0.959	92.7	inactive

As entered above:
TMEM25 (transmembrane protein 25) #1, outcome = inactive
LINC02914 (long independently transcribed non-coding RNA 2914) #1, luciferase per cell, z-score = 0.837
For “luciferase per cell, z-score”, GPA33 (glycoprotein A33) #3 shows -1.38
For “outcome”, GALNS (galactosamine (N-acetyl)-6-sulfatase) #1 reads inactive
HS1BP3 (HCLS1 binding protein 3) #2, outcome → inactive
Entry for MTHFD2L #3 under “outcome”: inactive
